No constants are given. Whether binding was seen depends on the method and setting. Binding seen in cells or lysates may run through a third protein. Some results given as binding are weak or reduced against the parent protein; the word gives no strength. For some of these results: Tags and fused reporters may be left off the sequences shown.
Columns and labels:
[1] = target: SBP-tagged human CPEB1 (human) (UniProt Q9BZB8); assay: co-IP; as a1, IP with streptavidin beads in the presence of 26 U RNase A/T1 (Fig. 7A)
[2] = target: T1, SBP-tagged human CPEB3 (human) (UniProt Q8NE35); assay: as above
T1 sequence: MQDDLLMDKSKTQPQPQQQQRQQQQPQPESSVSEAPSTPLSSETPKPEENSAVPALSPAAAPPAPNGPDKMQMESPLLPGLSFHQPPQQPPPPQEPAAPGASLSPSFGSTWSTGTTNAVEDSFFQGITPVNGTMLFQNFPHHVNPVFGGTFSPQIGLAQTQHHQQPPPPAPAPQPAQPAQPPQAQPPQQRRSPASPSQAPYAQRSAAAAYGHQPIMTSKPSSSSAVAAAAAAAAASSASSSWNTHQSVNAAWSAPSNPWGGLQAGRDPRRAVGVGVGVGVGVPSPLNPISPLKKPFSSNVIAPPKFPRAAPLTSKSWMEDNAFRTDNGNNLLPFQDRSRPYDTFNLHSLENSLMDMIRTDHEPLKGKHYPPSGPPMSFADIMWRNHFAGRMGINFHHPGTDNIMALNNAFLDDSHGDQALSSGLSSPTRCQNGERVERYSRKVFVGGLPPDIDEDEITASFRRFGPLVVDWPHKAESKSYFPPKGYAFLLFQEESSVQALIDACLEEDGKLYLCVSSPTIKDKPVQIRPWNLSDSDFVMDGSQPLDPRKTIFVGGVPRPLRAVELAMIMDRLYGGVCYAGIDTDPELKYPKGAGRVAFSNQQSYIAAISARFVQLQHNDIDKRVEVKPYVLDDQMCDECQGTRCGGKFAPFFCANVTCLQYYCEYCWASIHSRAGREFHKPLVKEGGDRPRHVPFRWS

By UniProt entry, the sequences of proteins in these tests, tags left out.
UniProt Q9BZB8: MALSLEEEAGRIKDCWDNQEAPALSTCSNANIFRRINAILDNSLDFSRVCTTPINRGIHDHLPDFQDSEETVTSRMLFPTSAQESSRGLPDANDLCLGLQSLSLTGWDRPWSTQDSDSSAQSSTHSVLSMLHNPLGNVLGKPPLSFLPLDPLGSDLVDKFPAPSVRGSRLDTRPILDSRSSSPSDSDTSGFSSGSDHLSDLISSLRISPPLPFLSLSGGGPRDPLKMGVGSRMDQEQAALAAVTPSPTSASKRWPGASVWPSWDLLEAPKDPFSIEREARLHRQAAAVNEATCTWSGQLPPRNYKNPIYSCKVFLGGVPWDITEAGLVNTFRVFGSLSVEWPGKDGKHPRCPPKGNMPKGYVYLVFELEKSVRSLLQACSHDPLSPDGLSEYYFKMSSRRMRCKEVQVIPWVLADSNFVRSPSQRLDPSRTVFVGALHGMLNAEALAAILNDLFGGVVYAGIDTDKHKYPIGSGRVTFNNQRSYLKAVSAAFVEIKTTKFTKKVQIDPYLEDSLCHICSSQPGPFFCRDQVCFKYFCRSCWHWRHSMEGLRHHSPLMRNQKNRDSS
UniProt A5YKK6: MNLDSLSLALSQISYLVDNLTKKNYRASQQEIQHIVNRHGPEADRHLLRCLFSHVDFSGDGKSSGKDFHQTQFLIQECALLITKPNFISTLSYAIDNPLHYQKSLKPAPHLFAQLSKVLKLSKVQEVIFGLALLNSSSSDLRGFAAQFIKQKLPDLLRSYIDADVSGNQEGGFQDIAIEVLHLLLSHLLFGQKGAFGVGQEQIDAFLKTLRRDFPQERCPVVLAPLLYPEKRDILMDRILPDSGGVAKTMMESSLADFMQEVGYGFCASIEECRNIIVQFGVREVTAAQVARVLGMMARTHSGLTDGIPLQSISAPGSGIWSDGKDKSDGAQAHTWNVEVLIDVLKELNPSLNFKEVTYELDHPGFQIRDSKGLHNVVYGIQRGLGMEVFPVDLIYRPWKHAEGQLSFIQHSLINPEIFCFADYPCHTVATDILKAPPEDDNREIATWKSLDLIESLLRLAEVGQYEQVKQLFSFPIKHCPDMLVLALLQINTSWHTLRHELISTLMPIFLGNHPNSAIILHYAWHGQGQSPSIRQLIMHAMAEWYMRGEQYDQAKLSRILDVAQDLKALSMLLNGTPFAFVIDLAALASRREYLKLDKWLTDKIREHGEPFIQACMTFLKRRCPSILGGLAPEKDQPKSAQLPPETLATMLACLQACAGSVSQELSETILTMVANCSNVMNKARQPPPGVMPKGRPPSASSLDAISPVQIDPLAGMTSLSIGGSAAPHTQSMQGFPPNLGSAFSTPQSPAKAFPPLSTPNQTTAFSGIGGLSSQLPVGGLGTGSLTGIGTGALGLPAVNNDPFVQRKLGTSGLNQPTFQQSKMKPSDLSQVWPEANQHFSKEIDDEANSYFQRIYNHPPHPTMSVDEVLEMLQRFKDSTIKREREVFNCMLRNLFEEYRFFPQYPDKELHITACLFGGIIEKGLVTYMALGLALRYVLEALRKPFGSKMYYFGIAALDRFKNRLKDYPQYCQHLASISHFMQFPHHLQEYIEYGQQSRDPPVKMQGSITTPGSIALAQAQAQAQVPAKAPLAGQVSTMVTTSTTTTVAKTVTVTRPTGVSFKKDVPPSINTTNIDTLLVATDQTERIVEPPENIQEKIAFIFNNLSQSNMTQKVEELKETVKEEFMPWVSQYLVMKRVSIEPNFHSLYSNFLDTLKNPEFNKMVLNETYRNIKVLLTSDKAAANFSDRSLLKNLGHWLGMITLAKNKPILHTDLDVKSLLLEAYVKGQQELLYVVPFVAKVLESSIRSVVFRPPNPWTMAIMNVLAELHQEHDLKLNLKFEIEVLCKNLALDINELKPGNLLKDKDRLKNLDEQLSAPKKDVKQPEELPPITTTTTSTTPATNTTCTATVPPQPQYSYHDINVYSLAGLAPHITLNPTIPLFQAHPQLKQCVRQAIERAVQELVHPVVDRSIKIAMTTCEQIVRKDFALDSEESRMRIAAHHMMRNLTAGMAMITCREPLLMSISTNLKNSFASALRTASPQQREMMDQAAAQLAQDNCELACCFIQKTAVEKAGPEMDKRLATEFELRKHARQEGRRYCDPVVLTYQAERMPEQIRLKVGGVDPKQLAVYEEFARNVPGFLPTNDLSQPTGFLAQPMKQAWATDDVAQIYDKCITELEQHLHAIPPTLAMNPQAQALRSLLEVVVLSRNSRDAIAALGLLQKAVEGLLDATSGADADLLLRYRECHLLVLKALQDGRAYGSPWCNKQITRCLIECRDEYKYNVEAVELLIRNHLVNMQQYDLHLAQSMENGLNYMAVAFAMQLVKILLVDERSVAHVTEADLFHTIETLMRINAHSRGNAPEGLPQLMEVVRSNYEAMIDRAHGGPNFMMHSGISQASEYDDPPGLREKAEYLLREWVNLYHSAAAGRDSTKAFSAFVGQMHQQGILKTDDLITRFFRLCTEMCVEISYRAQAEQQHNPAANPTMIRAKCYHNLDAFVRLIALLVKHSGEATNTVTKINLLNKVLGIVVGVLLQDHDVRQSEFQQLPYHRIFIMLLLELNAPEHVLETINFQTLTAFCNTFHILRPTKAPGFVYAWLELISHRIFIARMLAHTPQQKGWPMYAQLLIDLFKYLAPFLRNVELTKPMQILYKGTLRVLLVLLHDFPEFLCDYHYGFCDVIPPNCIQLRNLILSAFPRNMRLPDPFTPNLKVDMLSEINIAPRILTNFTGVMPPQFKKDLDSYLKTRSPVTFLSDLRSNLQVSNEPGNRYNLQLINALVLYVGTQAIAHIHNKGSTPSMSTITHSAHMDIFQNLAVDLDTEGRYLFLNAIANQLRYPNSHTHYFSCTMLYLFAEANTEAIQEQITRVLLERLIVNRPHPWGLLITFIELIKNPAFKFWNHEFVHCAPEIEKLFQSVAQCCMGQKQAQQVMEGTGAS
UniProt Q9NZN8: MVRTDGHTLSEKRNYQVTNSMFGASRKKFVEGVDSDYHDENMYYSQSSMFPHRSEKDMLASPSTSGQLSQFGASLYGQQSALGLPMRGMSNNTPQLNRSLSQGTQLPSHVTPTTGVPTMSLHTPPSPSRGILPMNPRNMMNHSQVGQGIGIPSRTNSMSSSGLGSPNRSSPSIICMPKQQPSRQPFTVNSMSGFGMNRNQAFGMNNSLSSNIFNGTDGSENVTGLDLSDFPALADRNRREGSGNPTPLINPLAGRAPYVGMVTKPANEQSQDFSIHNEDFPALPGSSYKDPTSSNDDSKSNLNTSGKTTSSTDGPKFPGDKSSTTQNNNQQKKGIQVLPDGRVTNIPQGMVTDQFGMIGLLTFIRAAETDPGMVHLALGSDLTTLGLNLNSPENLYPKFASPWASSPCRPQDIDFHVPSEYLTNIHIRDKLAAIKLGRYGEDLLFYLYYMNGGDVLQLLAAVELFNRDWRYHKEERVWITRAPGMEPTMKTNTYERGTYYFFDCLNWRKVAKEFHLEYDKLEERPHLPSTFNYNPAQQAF
UniProt Q9UIV1: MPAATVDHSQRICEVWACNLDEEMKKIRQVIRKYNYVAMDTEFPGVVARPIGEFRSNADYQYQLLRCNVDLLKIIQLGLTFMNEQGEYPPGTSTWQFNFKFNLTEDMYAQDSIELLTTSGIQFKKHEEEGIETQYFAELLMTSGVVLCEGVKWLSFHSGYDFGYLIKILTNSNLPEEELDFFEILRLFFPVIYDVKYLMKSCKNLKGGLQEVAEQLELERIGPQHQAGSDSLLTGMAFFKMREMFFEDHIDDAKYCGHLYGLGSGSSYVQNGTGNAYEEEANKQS
UniProt Q9H9A5: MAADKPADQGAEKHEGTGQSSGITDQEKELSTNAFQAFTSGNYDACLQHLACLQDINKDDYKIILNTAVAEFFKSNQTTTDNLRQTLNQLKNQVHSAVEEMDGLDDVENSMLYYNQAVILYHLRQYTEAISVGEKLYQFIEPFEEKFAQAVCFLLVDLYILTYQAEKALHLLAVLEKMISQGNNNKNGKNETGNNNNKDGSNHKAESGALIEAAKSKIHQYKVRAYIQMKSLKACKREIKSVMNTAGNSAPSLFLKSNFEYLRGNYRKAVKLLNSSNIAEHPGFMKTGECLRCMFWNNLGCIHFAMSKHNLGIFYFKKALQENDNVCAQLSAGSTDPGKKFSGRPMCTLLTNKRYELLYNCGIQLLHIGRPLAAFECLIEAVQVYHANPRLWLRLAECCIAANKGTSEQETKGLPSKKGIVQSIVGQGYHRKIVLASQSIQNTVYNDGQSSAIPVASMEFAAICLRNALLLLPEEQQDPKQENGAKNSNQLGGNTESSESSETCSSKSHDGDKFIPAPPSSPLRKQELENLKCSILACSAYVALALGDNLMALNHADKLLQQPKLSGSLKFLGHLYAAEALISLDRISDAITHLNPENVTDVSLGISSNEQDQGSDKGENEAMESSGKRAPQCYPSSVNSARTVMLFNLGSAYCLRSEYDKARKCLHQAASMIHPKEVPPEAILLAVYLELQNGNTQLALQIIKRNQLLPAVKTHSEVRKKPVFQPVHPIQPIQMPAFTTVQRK

[3] = target: T2, SBP-tagged mouse CPEB2 (mouse) (UniProt Q812E0); assay: as above
T2 sequence: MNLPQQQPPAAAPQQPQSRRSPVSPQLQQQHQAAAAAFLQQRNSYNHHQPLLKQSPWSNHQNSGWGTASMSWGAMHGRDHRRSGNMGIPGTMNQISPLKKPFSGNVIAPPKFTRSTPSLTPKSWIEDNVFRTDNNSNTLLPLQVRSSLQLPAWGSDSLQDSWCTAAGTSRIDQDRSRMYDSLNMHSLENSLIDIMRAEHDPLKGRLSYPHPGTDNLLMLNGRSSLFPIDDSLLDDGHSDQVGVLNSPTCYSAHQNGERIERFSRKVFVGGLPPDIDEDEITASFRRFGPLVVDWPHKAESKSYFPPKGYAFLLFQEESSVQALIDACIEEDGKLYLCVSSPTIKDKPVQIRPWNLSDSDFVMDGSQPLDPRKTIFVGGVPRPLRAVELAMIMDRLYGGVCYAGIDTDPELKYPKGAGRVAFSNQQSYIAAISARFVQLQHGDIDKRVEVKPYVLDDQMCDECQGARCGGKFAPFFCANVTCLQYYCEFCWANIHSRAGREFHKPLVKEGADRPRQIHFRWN

[4] = target: SBP-tagged human CPEB1 (human) (UniProt Q9BZB8); assay: co-IP; SBP-tagged CPEB precipitated from HeLa lysate with streptavidin beads (3 h, 4 °C; 20 mM Tris-HCl pH 7.5, 150 mM NaCl, 1.5 mM MgCl2, 1 mM DTT, 0.05% NP-40), endogenous partners detected by western blot; no RNase; Fig. 3A, Fig. 7A, and Fig. 3B after 20 nM RMD with or without overexpression of HA-TOB1
[5] = target: T1, SBP-tagged human CPEB3 (human); assay: as above
[6] = target: T2, SBP-tagged mouse CPEB2 (mouse); assay: as above
[7] = target: T3, streptavidin binding peptide (SBP)-tagged CPEB4 (human) (UniProt Q17RY0); assay: as above
T3 sequence: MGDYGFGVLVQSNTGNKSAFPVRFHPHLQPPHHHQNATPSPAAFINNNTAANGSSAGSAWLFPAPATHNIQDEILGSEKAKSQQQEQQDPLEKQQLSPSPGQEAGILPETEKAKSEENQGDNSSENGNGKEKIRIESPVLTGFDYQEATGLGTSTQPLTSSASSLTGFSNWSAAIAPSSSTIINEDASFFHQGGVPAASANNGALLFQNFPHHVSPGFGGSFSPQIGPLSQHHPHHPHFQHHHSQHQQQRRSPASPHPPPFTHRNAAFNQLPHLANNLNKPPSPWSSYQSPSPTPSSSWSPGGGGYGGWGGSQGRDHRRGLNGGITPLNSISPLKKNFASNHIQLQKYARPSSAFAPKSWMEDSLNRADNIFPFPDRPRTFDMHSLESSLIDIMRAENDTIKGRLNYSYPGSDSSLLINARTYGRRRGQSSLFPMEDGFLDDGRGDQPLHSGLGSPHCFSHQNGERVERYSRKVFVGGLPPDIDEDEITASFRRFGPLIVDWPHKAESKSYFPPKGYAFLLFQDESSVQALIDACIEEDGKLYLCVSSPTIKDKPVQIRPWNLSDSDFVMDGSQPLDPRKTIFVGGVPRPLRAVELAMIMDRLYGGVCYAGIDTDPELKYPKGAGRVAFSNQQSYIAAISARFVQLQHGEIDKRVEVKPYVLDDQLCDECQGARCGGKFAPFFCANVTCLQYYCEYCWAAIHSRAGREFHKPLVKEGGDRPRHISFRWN

Measured: binding

NOT1 (from UniProt A5YKK6 1-2376)
not listed: [7]
binds: all other assays above

NOT2 (from UniProt Q9NZN8 1-540)
not listed: [7]
binds: all other assays above

NOT7/CAF1a (from UniProt Q9UIV1 1-285)
not listed: [7]
binds: all other assays above

NOT10 (from UniProt Q9H9A5 1-744)
not listed: [7]
binds: all other assays above

B1: TOB1 (protein, UniProt P50616 1-345)
chain: MQLEIQVALNFIISYLYNKLPRRRVNIFGEELERLLKKKYEGHWYPEKPYKGSGFRCIHIGEKVDPVIEQASKESGLDIDDVRGNLPQDLSVWIDPFEVSYQIGEKGPVKVLYVDDNNENGCELDKEIKNSFNPEAQVFMPISDPASSVSSSPSPPFGHSAAVSPTFMPRSTQPLTFTTATFAATKFGSTKMKNSGRSNKVARTSPINLGLNVNDLLKQKAISSSMHSLYGLGLGSQQQPQQQQQPAQPPPPPPPPQQQQQQKTSALSPNAKEFIFPNMQGQGSSTNGMFPGDSPLNLSPLQYSNAFDVFAAYGGLNEKSFVDGLNFSLNNMQYSNQQFQPVMAN
binds: [7]

Reference: PMC9465963
